PubChem BioAssay AID1159578 | Peter MacCallum Cancer Centre, 2015
The deposit covers about 18,000 reagents; below is a part drawn at random. About 1,030 of them (5.7%) were called active. 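Inactive calls also include pools with fewer than 3300 nuclei, whose migration was not assessed.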 Raw values are not corrected between plates. Not all columns of the deposit are shown.

Aim: 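siRNA pools altering how lymphatic endothelial cells close a scratch wound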 (primary screen)
System: human lymphatic endothelial cells
Reagents: siRNA pool against human genes, 40 nM
Duration: 48 h after transfection
Measurement: 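High-content imaging of dye-stained cells in a scratch assay measures filled wound area and nuclei per well; duplicate means given as ratio to mock and robust z-score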
Reading the numbers: migration robust z-score: higher = faster migration into the scratch; nuclei per well: higher = more cells in the well
Hit rule: 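Migration changed when robust z exceeds 2 or falls below -2 and mean nuclei number is at least 3300; otherwise not called changed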
Calls: active = migration changed; inactive = no migration change, or too few cells

target,migration robust z-score,"nuclei per well, duplicate mean",Call
IFNA4 (interferon alpha 4),0.94,6050,inactive
NEMP1 (nuclear envelope integral membrane protein 1),-1.08,5284,inactive
FFAR2 (free fatty acid receptor 2),0.86,5270,inactive
REST (RE1 silencing transcription factor),-1.34,5806,inactive
"TNNT3 (troponin T3, fast skeletal type)",-0.77,5822,inactive
RNF180 (ring finger protein 180),0.93,5563,inactive
EYA2 (EYA transcriptional coactivator and phosphatase 2),-0.05,5188,inactive
C19orf33 (chromosome 19 open reading frame 33),0.62,4909,inactive
JKAMP (JNK1/MAPK8 associated membrane protein),-1.34,5546,inactive
ANKRD16 (ankyrin repeat domain 16),0,5818,inactive
FASTKD2 (FASTK mitochondrial RNA regulator 2),-2.66,2704,inactive
CETN3 (centrin 3),0.86,6342,inactive
MEI1 (meiotic double-stranded break formation protein 1),-0.78,6466,inactive
ATP6V1B2 (ATPase H+ transporting V1 subunit B2),0.46,6462,inactive
ALS2 (alsin Rho guanine nucleotide exchange factor ALS2),-2.05,3347,active
KCNS3,-0.28,5472,inactive
SAMD9 (sterile alpha motif domain containing 9),0.64,4721,inactive
GPR22 (G protein-coupled receptor 22),0.1,6802,inactive
KRTAP6-1 (keratin associated protein 6-1),0.12,4709,inactive
CARD18 (caspase recruitment domain family member 18),0.57,6052,inactive
FAM135B (family with sequence similarity 135 member B),1.25,6256,inactive
DUSP18 (dual specificity phosphatase 18),0.78,5722,inactive
PAM (peptidylglycine alpha-amidating monooxygenase),0.42,5571,inactive
JTB (jumping translocation breakpoint),2.08,6108,active
SLC2A9,0.36,6492,inactive
NEUROD1 (neuronal differentiation 1),-0.31,4724,inactive
BAG2 (BAG cochaperone 2),1.56,4257,inactive
OR10A6,-0.35,5888,inactive
ITGBL1 (integrin subunit beta like 1),-0.92,6156,inactive
PAIP1 (poly(A) binding protein interacting protein 1),-1.19,4306,inactive
MLLT3 (MLLT3 super elongation complex subunit),1.37,5716,inactive
PEF1 (penta-EF-hand domain containing 1),-0.16,5496,inactive
HID1 (HID1 domain containing),-0.03,5596,inactive
DHRS3 (dehydrogenase/reductase 3),-0.54,4240,inactive
NSL1 (NSL1 component of MIS12 kinetochore complex),0.95,6438,inactive
TCTN1 (tectonic family member 1),0.56,5028,inactive
DUSP15 (dual specificity phosphatase 15),0.42,6314,inactive
GOSR1 (golgi SNAP receptor complex member 1),0.18,5880,inactive
SNAPC1 (small nuclear RNA activating complex polypeptide 1),-0.71,5832,inactive
MYO6 (myosin VI),-0.42,7186,inactive
DDX43 (DEAD-box helicase 43),-0.18,5594,inactive
CPSF7 (cleavage and polyadenylation specific factor 7),0.98,6414,inactive
MAZ (MYC associated zinc finger protein),0.65,5413,inactive
KCNMB3,-1.4,4013,inactive
"NFE2 (nuclear factor, erythroid 2)",-0.28,5573,inactive
WDR6 (WD repeat domain 6),2.67,5749,active
CCNI2 (cyclin I family member 2),-0.32,5257,inactive
BET1L (Bet1 golgi vesicular membrane trafficking protein like),-4.14,2124,inactive
CDKN3 (cyclin dependent kinase inhibitor 3),0.86,5230,inactive
DDX28 (DEAD-box helicase 28),1.06,4898,inactive
TRPC4,-0.94,5148,inactive
CTNNA1 (catenin alpha 1),0.33,6298,inactive
MAP6 (microtubule associated protein 6),0.88,4561,inactive
TGM7 (transglutaminase 7),-3.07,3023,inactive
SLC39A1,-0.94,5977,inactive
SIMC1 (SUMO interacting motifs containing 1),-1.94,6126,inactive
GOLM2 (golgi membrane protein 2),-1.54,4434,inactive

3 entries from above, ordered by “migration robust z-score”, high to low:
target,migration robust z-score,"nuclei per well, duplicate mean",Call
CETN3 (centrin 3),0.86,6342,inactive
ATP6V1B2 (ATPase H+ transporting V1 subunit B2),0.46,6462,inactive
MEI1 (meiotic double-stranded break formation protein 1),-0.78,6466,inactive
